Laboratory results reported in publication PMC11212424.
These are yes or no findings as the source states them, for the method shown. In cells and extracts the contact can be indirect. Some entries that bind do so weakly or less than the wild type. For part of these data: Where a sequence is shown, tags or fusion partners need not be part of it. Each block holds one molecule with its values, some of them ahead of it.

Chains of the proteins cited; added tags and fusions are not shown.
UniProt Q2EJA0: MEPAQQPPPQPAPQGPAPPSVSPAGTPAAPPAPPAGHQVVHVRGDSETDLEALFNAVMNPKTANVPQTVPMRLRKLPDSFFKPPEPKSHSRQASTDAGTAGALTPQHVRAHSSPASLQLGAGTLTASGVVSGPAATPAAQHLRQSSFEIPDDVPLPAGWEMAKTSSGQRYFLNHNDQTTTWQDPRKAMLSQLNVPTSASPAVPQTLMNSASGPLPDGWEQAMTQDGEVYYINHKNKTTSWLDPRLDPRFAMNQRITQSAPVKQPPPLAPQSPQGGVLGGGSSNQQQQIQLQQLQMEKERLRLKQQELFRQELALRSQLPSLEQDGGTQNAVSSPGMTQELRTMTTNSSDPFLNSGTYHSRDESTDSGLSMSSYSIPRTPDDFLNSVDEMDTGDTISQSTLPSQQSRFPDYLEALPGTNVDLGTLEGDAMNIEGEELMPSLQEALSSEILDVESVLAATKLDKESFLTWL
UniProt P46938: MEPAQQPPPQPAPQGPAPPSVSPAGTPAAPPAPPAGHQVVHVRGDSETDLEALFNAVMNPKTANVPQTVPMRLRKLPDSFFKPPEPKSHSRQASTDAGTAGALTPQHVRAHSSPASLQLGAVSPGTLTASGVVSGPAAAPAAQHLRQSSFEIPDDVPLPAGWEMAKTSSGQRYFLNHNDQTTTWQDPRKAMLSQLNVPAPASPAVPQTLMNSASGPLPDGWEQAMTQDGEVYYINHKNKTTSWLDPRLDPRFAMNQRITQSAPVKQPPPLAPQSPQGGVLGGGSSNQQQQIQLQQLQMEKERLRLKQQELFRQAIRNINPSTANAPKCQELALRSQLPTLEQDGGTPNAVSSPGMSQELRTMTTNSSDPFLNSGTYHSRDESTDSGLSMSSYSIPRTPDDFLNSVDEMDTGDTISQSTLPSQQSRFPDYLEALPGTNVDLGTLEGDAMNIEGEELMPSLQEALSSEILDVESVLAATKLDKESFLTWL

How the values were obtained:
[1] = target: T1, Tudor-SN, endogenous in mouse myocardia (mouse (endogenous in myocardia)) (UniProt Q78PY7); assay: co-IP; lysates of P1 mouse myocardia (WT, TG, Tudor-SN fl/fl, Myh6-Tudor-SN -/-); anti-Tudor-SN or anti-YAP antibody on protein A/G agarose, NP-40 lysis buffer with 150 mM NaCl, 2 mM EDTA, 50 mM Tris-HCl pH 8.0; western blot
T1 sequence: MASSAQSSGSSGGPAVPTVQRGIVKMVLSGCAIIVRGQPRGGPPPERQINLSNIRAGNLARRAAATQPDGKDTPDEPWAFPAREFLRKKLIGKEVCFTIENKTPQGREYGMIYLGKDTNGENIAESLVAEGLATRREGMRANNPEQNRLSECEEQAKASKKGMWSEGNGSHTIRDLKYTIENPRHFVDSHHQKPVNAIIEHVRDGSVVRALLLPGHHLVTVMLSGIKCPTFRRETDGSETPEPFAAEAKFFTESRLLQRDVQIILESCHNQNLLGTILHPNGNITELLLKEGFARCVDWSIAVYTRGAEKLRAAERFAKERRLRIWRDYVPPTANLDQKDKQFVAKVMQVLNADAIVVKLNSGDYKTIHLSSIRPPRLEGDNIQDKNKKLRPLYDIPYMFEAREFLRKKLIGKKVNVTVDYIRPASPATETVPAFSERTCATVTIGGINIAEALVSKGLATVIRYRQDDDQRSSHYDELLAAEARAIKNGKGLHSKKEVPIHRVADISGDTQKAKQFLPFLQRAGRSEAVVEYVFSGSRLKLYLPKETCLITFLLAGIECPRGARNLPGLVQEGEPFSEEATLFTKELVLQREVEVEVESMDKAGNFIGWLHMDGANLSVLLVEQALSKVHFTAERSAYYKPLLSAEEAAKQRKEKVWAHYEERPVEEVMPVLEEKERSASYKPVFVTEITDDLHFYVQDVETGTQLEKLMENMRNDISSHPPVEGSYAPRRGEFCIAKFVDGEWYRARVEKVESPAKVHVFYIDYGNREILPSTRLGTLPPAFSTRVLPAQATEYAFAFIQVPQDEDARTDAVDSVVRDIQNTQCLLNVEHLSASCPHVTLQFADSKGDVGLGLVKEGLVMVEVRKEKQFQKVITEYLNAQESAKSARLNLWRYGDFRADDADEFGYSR

[2] = target: T2, Flag-Tudor-SN (Tudor staphylococcal nuclease) (UniProt Q66X93); assay: co-IP; total lysates of H9c2 cells expressing Flag-Tudor-SN or Flag-YAP, precipitated with anti-Flag beads; western blot for YAP or Tudor-SN
T2 sequence: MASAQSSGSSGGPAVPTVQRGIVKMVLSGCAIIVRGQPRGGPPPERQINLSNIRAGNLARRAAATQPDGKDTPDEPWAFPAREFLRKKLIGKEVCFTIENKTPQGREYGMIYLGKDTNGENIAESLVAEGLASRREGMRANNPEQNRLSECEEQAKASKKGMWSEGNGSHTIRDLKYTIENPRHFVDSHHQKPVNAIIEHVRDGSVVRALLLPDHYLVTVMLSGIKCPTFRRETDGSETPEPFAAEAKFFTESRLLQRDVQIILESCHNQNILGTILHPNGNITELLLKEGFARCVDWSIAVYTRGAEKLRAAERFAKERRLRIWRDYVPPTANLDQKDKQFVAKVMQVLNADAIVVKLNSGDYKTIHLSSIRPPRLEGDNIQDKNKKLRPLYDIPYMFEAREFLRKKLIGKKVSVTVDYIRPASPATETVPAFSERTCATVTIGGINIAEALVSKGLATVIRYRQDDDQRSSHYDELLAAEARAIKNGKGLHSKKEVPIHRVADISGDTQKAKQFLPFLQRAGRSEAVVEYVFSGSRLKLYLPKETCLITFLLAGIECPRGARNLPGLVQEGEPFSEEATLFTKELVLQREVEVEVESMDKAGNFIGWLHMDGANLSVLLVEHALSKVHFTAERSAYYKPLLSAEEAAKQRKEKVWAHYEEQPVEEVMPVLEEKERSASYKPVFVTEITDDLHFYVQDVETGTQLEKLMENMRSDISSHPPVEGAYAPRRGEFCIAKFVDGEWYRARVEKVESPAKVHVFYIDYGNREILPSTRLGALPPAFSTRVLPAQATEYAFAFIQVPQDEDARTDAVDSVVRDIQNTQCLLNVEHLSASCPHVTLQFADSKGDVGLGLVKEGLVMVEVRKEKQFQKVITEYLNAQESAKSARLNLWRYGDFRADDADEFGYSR

[3] = target: T3, GST-Tudor-SN (full-length Tudor-SN) (UniProt Q66X93); assay: pull-down; GST fusion proteins from E. coli held on glutathione-agarose beads, incubated 12 h with in vitro transcribed/translated product (rabbit reticulocyte lysate); western blot; only the target purified
T3 sequence: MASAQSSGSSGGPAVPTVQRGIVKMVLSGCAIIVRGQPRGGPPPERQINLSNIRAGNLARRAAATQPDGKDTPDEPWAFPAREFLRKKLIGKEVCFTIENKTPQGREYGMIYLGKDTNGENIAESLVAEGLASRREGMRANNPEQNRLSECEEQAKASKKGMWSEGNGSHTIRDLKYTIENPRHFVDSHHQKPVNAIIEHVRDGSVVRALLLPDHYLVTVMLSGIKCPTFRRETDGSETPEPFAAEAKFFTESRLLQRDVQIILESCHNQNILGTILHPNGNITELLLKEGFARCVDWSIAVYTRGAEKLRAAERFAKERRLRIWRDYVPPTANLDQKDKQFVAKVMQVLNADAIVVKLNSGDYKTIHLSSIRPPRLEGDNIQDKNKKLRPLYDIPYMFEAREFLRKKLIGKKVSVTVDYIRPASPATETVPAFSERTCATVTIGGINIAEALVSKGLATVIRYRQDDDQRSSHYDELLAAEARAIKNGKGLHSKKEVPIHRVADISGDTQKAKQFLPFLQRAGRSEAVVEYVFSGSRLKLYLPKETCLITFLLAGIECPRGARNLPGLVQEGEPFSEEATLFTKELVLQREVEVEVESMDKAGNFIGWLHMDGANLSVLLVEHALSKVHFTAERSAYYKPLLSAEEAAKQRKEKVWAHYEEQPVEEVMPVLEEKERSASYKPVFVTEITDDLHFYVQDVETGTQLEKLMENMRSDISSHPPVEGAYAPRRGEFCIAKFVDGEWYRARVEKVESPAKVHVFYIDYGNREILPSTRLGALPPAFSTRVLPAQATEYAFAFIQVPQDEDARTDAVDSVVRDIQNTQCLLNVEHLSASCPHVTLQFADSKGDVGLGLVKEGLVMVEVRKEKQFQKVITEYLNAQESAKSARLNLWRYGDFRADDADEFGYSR

Flag-YAP = Flag-YAP (UniProt Q2EJA0); assay: co-IP; total lysates of H9c2 cells expressing Flag-Tudor-SN or Flag-YAP, precipitated with anti-Flag beads; western blot for YAP or Tudor-SN
[4] = target: GST-YAP (full-length YAP) (UniProt Q2EJA0); assay: pull-down; GST fusion proteins from E. coli held on glutathione-agarose beads, incubated 12 h with in vitro transcribed/translated product (rabbit reticulocyte lysate); western blot; only the target purified
[5] = target: Yes-associated protein (YAP), endogenous in mouse myocardia (mouse (endogenous in myocardia)) (UniProt P46938); assay: co-IP; lysates of P1 mouse myocardia (WT, TG, Tudor-SN fl/fl, Myh6-Tudor-SN -/-); anti-Tudor-SN or anti-YAP antibody on protein A/G agarose, NP-40 lysis buffer with 150 mM NaCl, 2 mM EDTA, 50 mM Tris-HCl pH 8.0; western blot

binding [2]: binds
Molecule: Yes-associated protein (YAP), endogenous in H9c2 cells (from UniProt Q2EJA0 1-469)

binding (Flag-YAP): binds
B1: Tudor-SN, endogenous in H9c2 cells (protein, UniProt Q66X93 1-909)
chain: MASAQSSGSSGGPAVPTVQRGIVKMVLSGCAIIVRGQPRGGPPPERQINLSNIRAGNLARRAAATQPDGKDTPDEPWAFPAREFLRKKLIGKEVCFTIENKTPQGREYGMIYLGKDTNGENIAESLVAEGLASRREGMRANNPEQNRLSECEEQAKASKKGMWSEGNGSHTIRDLKYTIENPRHFVDSHHQKPVNAIIEHVRDGSVVRALLLPDHYLVTVMLSGIKCPTFRRETDGSETPEPFAAEAKFFTESRLLQRDVQIILESCHNQNILGTILHPNGNITELLLKEGFARCVDWSIAVYTRGAEKLRAAERFAKERRLRIWRDYVPPTANLDQKDKQFVAKVMQVLNADAIVVKLNSGDYKTIHLSSIRPPRLEGDNIQDKNKKLRPLYDIPYMFEAREFLRKKLIGKKVSVTVDYIRPASPATETVPAFSERTCATVTIGGINIAEALVSKGLATVIRYRQDDDQRSSHYDELLAAEARAIKNGKGLHSKKEVPIHRVADISGDTQKAKQFLPFLQRAGRSEAVVEYVFSGSRLKLYLPKETCLITFLLAGIECPRGARNLPGLVQEGEPFSEEATLFTKELVLQREVEVEVESMDKAGNFIGWLHMDGANLSVLLVEHALSKVHFTAERSAYYKPLLSAEEAAKQRKEKVWAHYEEQPVEEVMPVLEEKERSASYKPVFVTEITDDLHFYVQDVETGTQLEKLMENMRSDISSHPPVEGAYAPRRGEFCIAKFVDGEWYRARVEKVESPAKVHVFYIDYGNREILPSTRLGALPPAFSTRVLPAQATEYAFAFIQVPQDEDARTDAVDSVVRDIQNTQCLLNVEHLSASCPHVTLQFADSKGDVGLGLVKEGLVMVEVRKEKQFQKVITEYLNAQESAKSARLNLWRYGDFRADDADEFGYSR

The next lines start with the molecule.

Molecule: Yes-associated protein (YAP), endogenous in mouse myocardia (from UniProt P46938 1-488)
binding [1]: binds

Molecule: in vitro-translated YAP (from UniProt Q2EJA0 1-469)
binding [3]: binds

B2: in vitro-translated Tudor-SN (protein, UniProt Q66X93 1-909)
chain: MASAQSSGSSGGPAVPTVQRGIVKMVLSGCAIIVRGQPRGGPPPERQINLSNIRAGNLARRAAATQPDGKDTPDEPWAFPAREFLRKKLIGKEVCFTIENKTPQGREYGMIYLGKDTNGENIAESLVAEGLASRREGMRANNPEQNRLSECEEQAKASKKGMWSEGNGSHTIRDLKYTIENPRHFVDSHHQKPVNAIIEHVRDGSVVRALLLPDHYLVTVMLSGIKCPTFRRETDGSETPEPFAAEAKFFTESRLLQRDVQIILESCHNQNILGTILHPNGNITELLLKEGFARCVDWSIAVYTRGAEKLRAAERFAKERRLRIWRDYVPPTANLDQKDKQFVAKVMQVLNADAIVVKLNSGDYKTIHLSSIRPPRLEGDNIQDKNKKLRPLYDIPYMFEAREFLRKKLIGKKVSVTVDYIRPASPATETVPAFSERTCATVTIGGINIAEALVSKGLATVIRYRQDDDQRSSHYDELLAAEARAIKNGKGLHSKKEVPIHRVADISGDTQKAKQFLPFLQRAGRSEAVVEYVFSGSRLKLYLPKETCLITFLLAGIECPRGARNLPGLVQEGEPFSEEATLFTKELVLQREVEVEVESMDKAGNFIGWLHMDGANLSVLLVEHALSKVHFTAERSAYYKPLLSAEEAAKQRKEKVWAHYEEQPVEEVMPVLEEKERSASYKPVFVTEITDDLHFYVQDVETGTQLEKLMENMRSDISSHPPVEGAYAPRRGEFCIAKFVDGEWYRARVEKVESPAKVHVFYIDYGNREILPSTRLGALPPAFSTRVLPAQATEYAFAFIQVPQDEDARTDAVDSVVRDIQNTQCLLNVEHLSASCPHVTLQFADSKGDVGLGLVKEGLVMVEVRKEKQFQKVITEYLNAQESAKSARLNLWRYGDFRADDADEFGYSR
binding [4]: binds

B3: Tudor-SN, endogenous in mouse myocardia (protein, UniProt Q78PY7 1-910)
chain: MASSAQSSGSSGGPAVPTVQRGIVKMVLSGCAIIVRGQPRGGPPPERQINLSNIRAGNLARRAAATQPDGKDTPDEPWAFPAREFLRKKLIGKEVCFTIENKTPQGREYGMIYLGKDTNGENIAESLVAEGLATRREGMRANNPEQNRLSECEEQAKASKKGMWSEGNGSHTIRDLKYTIENPRHFVDSHHQKPVNAIIEHVRDGSVVRALLLPGHHLVTVMLSGIKCPTFRRETDGSETPEPFAAEAKFFTESRLLQRDVQIILESCHNQNLLGTILHPNGNITELLLKEGFARCVDWSIAVYTRGAEKLRAAERFAKERRLRIWRDYVPPTANLDQKDKQFVAKVMQVLNADAIVVKLNSGDYKTIHLSSIRPPRLEGDNIQDKNKKLRPLYDIPYMFEAREFLRKKLIGKKVNVTVDYIRPASPATETVPAFSERTCATVTIGGINIAEALVSKGLATVIRYRQDDDQRSSHYDELLAAEARAIKNGKGLHSKKEVPIHRVADISGDTQKAKQFLPFLQRAGRSEAVVEYVFSGSRLKLYLPKETCLITFLLAGIECPRGARNLPGLVQEGEPFSEEATLFTKELVLQREVEVEVESMDKAGNFIGWLHMDGANLSVLLVEQALSKVHFTAERSAYYKPLLSAEEAAKQRKEKVWAHYEERPVEEVMPVLEEKERSASYKPVFVTEITDDLHFYVQDVETGTQLEKLMENMRNDISSHPPVEGSYAPRRGEFCIAKFVDGEWYRARVEKVESPAKVHVFYIDYGNREILPSTRLGTLPPAFSTRVLPAQATEYAFAFIQVPQDEDARTDAVDSVVRDIQNTQCLLNVEHLSASCPHVTLQFADSKGDVGLGLVKEGLVMVEVRKEKQFQKVITEYLNAQESAKSARLNLWRYGDFRADDADEFGYSR
binding [5]: binds
